The values that follow come from publication PMC6072516, “Rational design and synthesis of novel phenylsulfonyl-benzamides as anti-prostate cancer agents” (MedChemComm, 2017).

Assay [1] deals with four human prostate cancer cell lines: LNCaP, 22Rv1, VCaP, DU145. Briefly: Antiproliferative assay, overall effect in the four cell lines (geometric mean). In kind it is cell-based. The conditions noted are these: geometric mean of the four cell lines, read-out: Absolute IC50 Geo. mean. The protocol:
PCR based DNA-fingerprinting methodology.
density of 4.000 – 30.000 cells/well.
test compound were added.
concentrations in triplicate.
After an incubation period of
control/background ratio >3.0
The absolute IC50 value reflects the
The calculation was done by a 4
for calculation of the geometric mean value.
of 0.05% Trypsin/EDTA. […] When all cells

The test system of another assay is VCaP. Briefly: 2D monolayer antiproliferative assay (propidium iodide), VCaP. The conditions noted are these: Homo sapiens, 96 h, read-out: Absolute IC50 VCaP.
A further assay relates to 22Rv1. Briefly: 2D monolayer antiproliferative assay (propidium iodide), 22Rv1. The conditions noted are these: Homo sapiens, 22Rv1, 96 h, read-out: Absolute IC50 22Rv1.
A further assay has as its system LNCaP. In words: 2D monolayer antiproliferative assay (propidium iodide), LNCaP. Conditions: Homo sapiens, 96 h, read-out: Absolute IC50 LNCaP.

With `CNC(=O)c1ccc(N2C(=S)N(c3ccc(C#N)c(C(F)(F)F)c3)C(=O)C2(C)C)cc1F` [Enzalutamide, enzalutamide, reference compound], the IC50 in assay [1] stood at 27.4 µM; in the assay with VCaP, 24.5 µM; with 22Rv1 it was 24.8 µM; in the assay on LNCaP it was 20.9 µM.
